Assay results: US9068166B2, “Use of compounds for inducing differentiation of mesenchymal stem cells to chondrocytes” (Industry-Academic Cooperation Foundation Yonsei University, priority 2010, dated 2015)
Some entries share one result that the patent states for a list of compounds.

Test system: human adipose tissue-derived mesenchymal stem cells
Test: Sandwich ELISA of aggrecan expression (chondrocyte marker) in treated mesenchymal stem cells
Assay type: cell-based
Conditions: p<0.001 vs. control, FIG. 5
Experimental: 60 cc of an expanding solution (obtained by adding 30 mL of 1% lidocaine, 30 mL of 0.5% bupivacaine, 10 mL of 4.2% sodium bicarbonate and 1 mg of epinephrine to 1 L of normal water for injection) was applied to the periphery of a navel under sterile conditions. Fats were suctioned using Mercedes 3 mm×9 cm Aspiration Luer Lock Cannula (Byron Medical, Tucson, Ariz.), and then instantly kept on ice. Since a lipoaspirate filtered through a 250 mm sieve included an anesthetic and a contaminant such as blood, the lipoaspirate was washed with phosphate buffered saline (PBS) to remove the anesthetic and the contaminant. Collagenase I (1 mg/mL; Worthington Biochemical Corp., Lakewood, N.J.) was added to the obtained fat tissues, stirred, and then kept at 37° C. for an hour. The suspended adipose tissues were centrifuged at 1,500×g for 10 minutes, and a supernatant containing matured fat cells was discarded. The obtained stroma vascular (SV) cells were washed with 0.1% BSA, suspended in an M-199 medium (including 12.8% fetal bovine serum, heparin, 10,000 U/mL penicillin G, 25 mg/mL amphotericin B, and […] streptomycin), plated on a gelatin-coated tissue culture flask, and then incubated. After 24 hours, the tissue culture flask was washed to remove non-attached cells, and the incubation was continued.
[…] In this case, the mesenchymal stem cells were incubated for 11 days while replacing a medium including the compound of Formula 1 with a fresh one once every 3 days.
A capture antibody was bound to the bottom of each well, and the plate was then incubated overnight at 4° C. The plate was washed twice with PBS (Gibco), and treated with 100 μl of PBS containing 3% BSA at room temperature for 2 to 3 hours. The plate was washed twice with PBS, and a cell lysate was added to each well. Then, the plate was incubated at room temperature for 2 hours under a wet atmosphere. The plate was washed four times with PBS containing 0.02% Tween-20 (Sigma). A detector antibody was added to the plate, and the plate was then incubated at room temperature for 2 hours under a wet atmosphere. Thereafter, the plate was incubated with a peroxidase-conjugated secondary antibody at 37° C. for an hour. Finally, the plate was treated with 100 μl of a tetramethylbenzidine (TMB) solution (Sigma) as a substrate, and 25 μl of 0.1 M H2SO4 was added as a terminating buffer to stop the reaction. Immediately after the reaction, the absorbance was measured at 450 nm using an ELISA plate reader (Bio-Rad).

| Compound | induction of differentiation of mesenchymal stem cells to chondrocytes (aggrecan expression) compared with A1942 |
| --- | --- |
| CCN(c1cc(O)ccc1C)S(=O)(=O)c1ccc(C(C)(C)C)cc1 [Compound A2065, 4-Tert-butyl-N-ethyl-N-(5-hydroxyl-2-methyl-phenyl)-benzenesulfonamide] | at a level similar to the A1942 compound |
| O=S(=O)(Nc1ccc(O)cc1F)c1ccc(-c2ccccc2)cc1 [Compound A2008, Biphenyl-4-sulfonic acid (2-fluoro-4-hydroxyl-phenyl)-amide] | at a level similar to the A1942 compound |
| CC(C)(C)c1ccc(S(=O)(=O)Nc2cccc(O)c2)cc1 [Compound A1999, 4-tert-butyl-N-(3-hydroxyl-phenyl)-benzenesulfonamide] | at a level similar to the A1942 compound |
| O=S(=O)(Nc1ccc(O)c(F)c1)c1ccc2ccccc2c1 [Compound A2012, Naphthalene-2-sulfonic acid (3-fluoro-4-hydroxyl-phenyl)-amide] | at a level similar to the A1942 compound |
| CC(C)(C)c1ccc(S(=O)(=O)Nc2ccc(O)c(F)c2)cc1 [Compound A2010, 4-Tert-butyl-N-(3-fluoro-4-hydroxyl-phenyl)-benzenesulfonamide] | at a level similar to the A1942 compound |
| O=S(=O)(Nc1ccc(O)cc1F)c1ccc2ccccc2c1 [Compound A2009, Naphthalene-2-sulfonic acid (2-fluoro-4-hydroxyl-phenyl)-amide] | at a level similar to the A1942 compound |
| Cc1ccc(S(=O)(=O)Nc2cccc3c(O)cccc23)cc1 [Compound A1881, N-(5-hydroxyl-naphthalen-1-yl)-4-methyl-benzenesulfonamide] | at a level similar to the A1942 compound |
| O=[N+]([O-])c1cc(NS(=O)(=O)c2ccc3ccccc3c2)ccc1O [Compound A2013, Naphthalene-2-sulfonic acid (3-nitro-4-hydroxyl-phenyl)-amide] | at a level similar to the A1942 compound |
| O=S(=O)(Nc1ccc(O)cc1Cl)c1ccc(-c2ccccc2)cc1 [Compound A2001, Biphenyl-4-sulfonic acid (2-chloro-4-hydroxyl-phenyl)-amide] | at a level similar to the A1942 compound |
| O=S(=O)(NC1CCC(CCO)CC1)c1ccc(-c2ccccc2)cc1 (stereo not shown) [Compound A2068, Biphenyl-4-sulfonic acid [4-(2-hydroxyl-ethyl)-cyclohexyl]-amide] | at a level similar to the A1942 compound |
| O=S(=O)(NCCc1ccc(O)c(O)c1)c1ccc2ccccc2c1 [Compound A2064, Naphthalene-2-sulfonic acid [2-(3,4-dihydroxyl-phenyl)-ethyl]-amide] | at a level similar to the A1942 compound |
| CC(C)(C)c1ccc(S(=O)(=O)NCCc2ccc(O)c(O)c2)cc1 [Compound A2062, 4-Tert-butyl-N-[2-(3,4-dihydroxyl-phenyl)-ethyl]-benzenesulfonamide] | at a level similar to the A1942 compound |
| O=S(=O)(Nc1ccc(O)c(F)c1)c1ccc(-c2ccccc2)cc1 [Compound A2011, Biphenyl-4-sulfonic acid (3-fluoro-4-hydroxyl-phenyl)-amide] | at a level similar to the A1942 compound |
| CC(C)(C)c1ccc(S(=O)(=O)NC2CCC(CCO)CC2)cc1 (stereo not shown) [Compound A2067, 4-Tert-butyl-N-[4-(2-hydroxyl-ethyl)-cyclohexyl]-benzenesulfonamide] | at a level similar to the A1942 compound |
| O=S(=O)(Nc1ccc(O)cc1)c1ccc2ccccc2c1 [Compound A1880, Naphthalene-2-sulfonic acid (4-hydroxyl-phenyl)-amide] | at a level similar to the A1942 compound |
| CCN(c1cc(O)ccc1C)S(=O)(=O)c1ccc2ccccc2c1 [Compound A2066, Naphthalene-2-sulfonic acid ethyl-(5-hydroxyl-2-methyl-phenyl)-amide] | at a level similar to the A1942 compound |
| O=S(=O)(NCCc1ccc(O)c(O)c1)c1ccc(-c2ccccc2)cc1 [Compound A2063, Biphenyl-4-sulfonic acid [2-(3,4-dihydroxyl-phenyl)-ethyl]-amide] | at a level similar to the A1942 compound |
| O=S(=O)(NC1CCC(CCO)CC1)c1ccc2ccccc2c1 (stereo not shown) [Compound A2069, Naphthalene-2-sulfonic acid [4-(2-hydroxyl-ethyl)-cyclohexyl]-amide] | at a level similar to the A1942 compound |
| Cc1ccc(S(=O)(=O)Nc2cccc3ccc(O)cc23)cc1 [Compound A1882, N-(7-hydroxyl-naphthalen-1-yl)-4-methyl-benzenesulfonamide] | at a level similar to the A1942 compound |
| O=S(=O)(Nc1ccc(O)cc1Cl)c1ccc2ccccc2c1 [Compound A2002, Naphthalene-2-sulfonic acid (2-chloro-4-hydroxyl-phenyl)-amide] | at a level similar to the A1942 compound |
| CC(C)(C)c1ccc(S(=O)(=O)Nc2ccc(O)cc2F)cc1 [Compound A2007, 4-tert-butyl-N-(2-fluoro-4-hydroxyl-phenyl)-benzenesulfonamide] | at a level similar to the A1942 compound |
| CC(C)(C)c1ccc(S(=O)(=O)Nc2ccc(O)cc2Cl)cc1 [Compound A2000, 4-tert-butyl-N-(2-chloro-4-hydroxyl-phenyl)-benzenesulfonamide] | at a level similar to the A1942 compound |
